Source: publication PMC7880588
No constants are given. Whether binding was seen depends on the method and setting. In cells and extracts the contact can be indirect. Some binding calls cover weakened binding; strength is not graded here.

Protein sequences, listed by entry. Tags and fused reporters are not part of them. Residues count along the entry.
UniProt Q9CQN4, residues 24-206: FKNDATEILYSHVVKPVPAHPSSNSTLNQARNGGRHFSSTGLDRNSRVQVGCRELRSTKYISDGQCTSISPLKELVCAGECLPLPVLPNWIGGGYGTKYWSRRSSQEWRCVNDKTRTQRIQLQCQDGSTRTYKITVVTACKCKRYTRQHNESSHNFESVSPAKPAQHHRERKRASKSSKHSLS

Legend:
[1] = target: T1, soluble human LRP6 ectodomain fragment E3-E4 (residues 630 to 1244) (human) (UniProt O75581); assay: pull-down; C-terminally His-tagged LRP6 ectodomain fragments immobilised onto Ni-NTA beads, incubated with culture supernatant of Expi293F cells stably expressing mouse USAG-1; eluted by SDS, nonreducing SDS-PAGE; only the target purified
T1 sequence: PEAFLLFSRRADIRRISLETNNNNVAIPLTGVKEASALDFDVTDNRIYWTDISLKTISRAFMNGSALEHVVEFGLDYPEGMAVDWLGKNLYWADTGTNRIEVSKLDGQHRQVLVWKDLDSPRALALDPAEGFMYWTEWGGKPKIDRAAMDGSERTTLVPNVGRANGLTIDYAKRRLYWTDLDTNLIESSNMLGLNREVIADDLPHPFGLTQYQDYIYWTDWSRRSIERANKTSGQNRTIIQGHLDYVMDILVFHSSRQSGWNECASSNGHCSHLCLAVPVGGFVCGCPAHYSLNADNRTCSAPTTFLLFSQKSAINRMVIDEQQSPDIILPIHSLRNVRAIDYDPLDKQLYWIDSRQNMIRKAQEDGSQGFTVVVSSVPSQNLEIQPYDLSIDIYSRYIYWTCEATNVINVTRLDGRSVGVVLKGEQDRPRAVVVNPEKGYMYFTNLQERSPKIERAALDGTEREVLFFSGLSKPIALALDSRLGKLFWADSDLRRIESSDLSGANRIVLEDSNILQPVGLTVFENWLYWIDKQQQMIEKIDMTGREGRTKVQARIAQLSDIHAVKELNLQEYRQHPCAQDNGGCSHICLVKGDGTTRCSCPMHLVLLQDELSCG

[2] = target: soluble human LRP6 ectodomain fragment E1-E4 (residues 1 to 1244) (human) (UniProt O75581); assay: as above
[3] = target: soluble human LRP6 ectodomain fragment E1-E2 (residues 1 to 629) (human) (UniProt O75581); assay: as above
[4] = target: mouse USAG-1 (uterine sensitization-associated gene-1) recombinant protein (mouse) (UniProt Q9CQN4); assay: pull-down; Protein A beads with each anti-USAG-1 antibody (step 1), then USAG-1 (step 2), then LRP6 E1-E2 fragment (step 3) to form a ternary complex; nonreducing SDS-PAGE

| binding [1] | binding [2] | binding [3] | Substance | binding [4] |
| --- | --- | --- | --- | --- |
| no binding | no binding | binds | mouse USAG-1 (uterine sensitization-associated gene-1) recombinant protein (from UniProt Q9CQN4 24-206) |  |
|  |  |  | soluble human LRP6 ectodomain fragment E1-E2 (residues 1 to 629) (from UniProt O75581 20-629) (domain or fragment) | binds |
